Assay results from US20240309003A1, “HETEROCYCLIC COMPOUNDS AS TRIGGERING RECEPTOR EXPRESSED ON MYELOID CELLS 2 AGONISTS AND METHODS OF USE” (Vigil Neuroscience, Inc., priority 2021, published 2024).
Where two headings read alike, the source gives them in different places. The match of structure and compound is tentative.

By UniProt entry, the sequences of proteins in these tests, tags left out. Residues count along the entry.
UniProt Q9NZC2, 19-230 limits assumed: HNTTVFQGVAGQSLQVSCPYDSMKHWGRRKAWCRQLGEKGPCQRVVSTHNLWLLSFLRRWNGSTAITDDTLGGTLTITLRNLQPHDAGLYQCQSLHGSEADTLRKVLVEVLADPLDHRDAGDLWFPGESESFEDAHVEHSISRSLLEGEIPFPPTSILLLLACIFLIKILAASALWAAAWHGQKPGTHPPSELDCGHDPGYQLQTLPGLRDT
UniProt O43914, 22-113 partner limits assumed: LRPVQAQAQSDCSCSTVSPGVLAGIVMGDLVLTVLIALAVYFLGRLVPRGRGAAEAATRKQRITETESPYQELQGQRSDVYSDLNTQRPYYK

Molecular target: human TREM2 (Homo sapiens, UniProt Q9NZC2)
Assay: TREM2 agonist potency by cellular phosphorylation of Syk (AlphaLisa) in HEK293T-hTREM2 cells

| SMILES | EC50 (read-out: hTREM2 EC50, HEK293 cells expressing human TREM2 and DAP12, Table D) | EC50 (read-out: hTREM2 EC50, HEK293 cells expressing human TREM2 and DAP12, Table D-2) |
| --- | --- | --- |
| Cc1ccc2c(-c3ccc(Cl)cc3F)nc([C@H]3C[C@@H](C)O[C@@H](c4cnn(C5CC5)c4)C3)nc2n1 | < 50 nM | – |
| Cc1nc2nc([C@H]3CCO[C@@H](c4cnn(C5CC5)c4)C3)nc(-c3ccc(OC(F)F)cc3F)c2nc1C | – | 50 to 500 nM |
